Reference: article PMC6172828

The chains behind the UniProt entries cited, without tags or fusion partners. Where a name states a change or a piece, a line headed by the entry shows the natural chain unless it says otherwise.
UniProt Q5DW34: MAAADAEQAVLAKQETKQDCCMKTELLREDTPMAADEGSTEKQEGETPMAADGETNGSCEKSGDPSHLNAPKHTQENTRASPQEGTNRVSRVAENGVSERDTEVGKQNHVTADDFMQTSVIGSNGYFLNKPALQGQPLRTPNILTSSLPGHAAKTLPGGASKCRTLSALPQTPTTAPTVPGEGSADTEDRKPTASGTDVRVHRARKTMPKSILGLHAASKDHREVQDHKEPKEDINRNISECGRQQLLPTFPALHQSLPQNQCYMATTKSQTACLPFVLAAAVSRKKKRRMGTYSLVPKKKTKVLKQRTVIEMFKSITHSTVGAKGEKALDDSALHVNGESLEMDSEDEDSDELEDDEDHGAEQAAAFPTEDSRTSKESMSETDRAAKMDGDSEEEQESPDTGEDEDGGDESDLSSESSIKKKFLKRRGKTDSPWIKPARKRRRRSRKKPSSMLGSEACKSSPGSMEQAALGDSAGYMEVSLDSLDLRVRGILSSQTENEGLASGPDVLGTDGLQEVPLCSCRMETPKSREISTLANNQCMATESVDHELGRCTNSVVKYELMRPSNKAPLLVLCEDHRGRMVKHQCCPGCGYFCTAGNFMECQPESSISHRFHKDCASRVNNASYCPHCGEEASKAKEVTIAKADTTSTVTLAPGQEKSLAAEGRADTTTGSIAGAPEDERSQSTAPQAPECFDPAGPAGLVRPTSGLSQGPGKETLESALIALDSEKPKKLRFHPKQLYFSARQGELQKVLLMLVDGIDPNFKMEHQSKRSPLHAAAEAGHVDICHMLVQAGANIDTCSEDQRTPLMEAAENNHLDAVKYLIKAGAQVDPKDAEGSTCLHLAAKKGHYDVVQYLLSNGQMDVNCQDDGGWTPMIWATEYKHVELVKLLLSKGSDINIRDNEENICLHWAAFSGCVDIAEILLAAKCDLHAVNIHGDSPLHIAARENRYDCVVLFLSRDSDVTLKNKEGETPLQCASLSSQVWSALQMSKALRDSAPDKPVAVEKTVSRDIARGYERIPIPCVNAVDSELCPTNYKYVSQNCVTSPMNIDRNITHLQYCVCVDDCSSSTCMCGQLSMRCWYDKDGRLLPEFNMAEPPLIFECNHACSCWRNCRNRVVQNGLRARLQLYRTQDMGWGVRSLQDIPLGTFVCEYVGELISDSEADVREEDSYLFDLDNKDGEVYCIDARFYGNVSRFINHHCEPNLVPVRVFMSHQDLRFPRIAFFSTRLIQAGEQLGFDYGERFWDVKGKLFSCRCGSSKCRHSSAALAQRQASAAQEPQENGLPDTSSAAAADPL

Target: GST-fused mouse GLP catalytic SET-domain (mouse) (UniProt Q5DW34)
Assay: pull-down; GST pull-down after in vitro methylation: 4 µg recombinant proteins pre-incubated at 30 °C, SAM added for the indicated times; glutathione Sepharose in 20 mM Tris-HCl pH 7.5, 50 mM NaCl, 1 mM EDTA, 10% glycerol, 0.5% NP-40, 4 °C, 4 h; western blot; both purified

- binding: binds
B1: His and 3xFLAG-tagged ATF7IP (1–364), unmethylated (domain or fragment, UniProt Q7TT18 1-364)
chain: MDSVEEPQKKVFKARKTMRASDRQQLDAVHRVKGELLRADGKLLNGSHENGDLDPTSPLENTDCIQDREEVNGIDGICFQSEESTTEWKETPCMPNVAVKNKQEDLNSEALSPSITCDLSSRVTTEPGSGSPASDNPGCGTPVSDNPASDNPASDNPASDNPDSGDLAAGELATTVQATGDSACEEPPSSDPSSSDPTSSEPSSSEPTCSEPISGDPVSEEAASHDLVSGDSTCSEPVSGEPVSHEAASSEPATSEPASDEPVARVVAACELAPGESALDDCAPSGDSQSDEPPSSEDSLPRSVCSGLASGELTPGELSVEPATDTVKPSSSAVCEAGPDPDKTEPSSNNSDDCPGKSEDDEHL

No constants are given. Whether binding was seen depends on the method and setting. Binding calls can cover weak binding; strength is not graded here. Sequences can lack the tags named with a protein.
